The experiment deals with dihydropyridine binding sites on the L-type calcium channels. Also noted: species or system rat. Particulars: read-out: concentration giving 50% inhibition of [3H]nimodipine binding. The source says:
Other compounds which act through the same binding site as the dihydropyridines will inhibit this [^3 H]nimodipine binding.

On to `COC(=O)C1=C(C)NC(C)=C(C(=O)OC)C1c1ccccc1[N+](=O)[O-]` [nifedipine, reference compound], for which the IC50 is approximately 20 nM.

The record behind these values is patent US5312928A, “Calcium channel antagonists and methodology for their identification” (priority 1991, dated 1994).
